# Laboratory results reported in PubChem BioAssay AID624305 (National Center for Advancing Translational Sciences (NCATS), 2012).
# Inconclusive means that the source gave no clear call. Such entries were picked first, then a sample of the others. Potencies of inconclusive entries are doubtful fits and often do not repeat. Activity calls are given as the source filed them. Calls follow the shape of the dose curve; as a rule, active = well fitted activation curve with a large enough effect; inconclusive = small, poorly fitted or top-dose-only effect; inactive = no such curve, though single readings can be large or run the other way.
# Assay: qHTS assay for re-activators of p53 using a Luc reporter: Hit Validation; also: nearly all actives have a fitted effect of over 75% in size; as to activation: 0% is about no effect
# Conditions: p53-responsive luciferase reporter cells, luminescence, H1299 line expressing heat-sensitive Ala138Val p53; series mostly up to 46.1 µM; activation: at the top concentration
# Summary of the method: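 H1299 (p53-null) cells stably carrying p53-A138V and a BP100-luciferase reporter, 1000 cells/well, treated 24 h at 37 deg C. Compounds at several concentrations, 1:5 dilution; nocodazole control; luminescence read after 10 min with detection reagent.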
# Potency is read from the fitted curve at half-maximal effect.
SMILES,activation,Potency
Nc1c(C(=O)c2ccc(Cl)cc2)oc2ccccc12,inactive: -86.5%,
CCN(CC)c1ccc(CNc2ccc(Br)cn2)cc1,,"inconclusive: 29.1 µM [activator, partial curve, poor fit]"
Cc1ccc2nc(SCn3nnc4ccccc4c3=O)[nH]c2c1,,active: 1.3 µM
CCn1c(C)nc2cc(C(=O)NNC(=O)c3ccc(C)cc3)ccc21,,"inconclusive: 46.1 µM [activator, single point]"
COc1cc(C(=O)N/N=C(\c2ccccc2)c2ccccn2)cc(OC)c1OC,,"inconclusive: 6.51 µM [activator, single point]"
CCCCC(=O)Nc1cccc(NC(=S)NC(=O)Cc2ccccc2)c1,inactive: -23.4%,
O=C(COc1ccccc1[N+](=O)[O-])N/N=C/c1cccc(OC(=O)c2ccc3c(c2)OCO3)c1,,"inconclusive: 46.1 µM [activator, single point]"
O=c1oc2ccccc2nc1/C=C(O)/C=C/c1ccc(F)cc1,,"inconclusive: 11.6 µM [activator, partial curve, poor fit]"
CCc1ccc2oc(-c3ccc(N)cc3)nc2c1,,active: 0.092 µM
c1nc(C2CCCCC2)cc2cc3c(cc12)OCO3,,active: 6.51 µM
CC(Sc1nc(N)cc(=O)[nH]1)C(=O)NNC(=O)c1cccc(Cl)c1 (stereo not drawn),inactive: -18.8%,
CC(C)CCn1cnc2c(cnn2-c2ccc(F)cc2)c1=O,,"inconclusive: 29.1 µM [activator, single point]"
COc1cccc(N(C(=O)c2nc3nccc(C)n3n2)c2nc3ccccc3s2)c1,,active: 7.31 µM
